Reference: patent publication US9282741B2, “Aniline type compounds” (BASF SE, priority 2011, dated 2016)
Some of these results come from one statement about several compounds together.

test system: Tobacco Budworm (Heliothis virescens); experiment: Tobacco budworm (Heliothis virescens) I, foliar spray on cotton plants; type: in vivo; conditions: 1415 ppm, 4 days after treatment
Description: B.3 Tobacco Budworm (Heliothis virescens) I
The active compounds are formulated in cyclohexanone as a 10,000 ppm solution supplied in tubes. The tubes are inserted into an automated electrostatic sprayer equipped with an atomizing nozzle and they serve as stock solutions for which lower dilutions are made in 50% acetone:50% water (v/v). A nonionic surfactant (Kinetic®) is included in the solution at a volume of 0.01% (v/v).
Cotton plants are grown 2 plants to a pot and selected for treatment at the cotyledon stage. Test solutions are sprayed onto the foliage by an automated electrostatic plant sprayer equipped with an atomizing spray nozzle. The plants are dried in the sprayer fume hood and then removed from the sprayer. Each pot is placed into perforated plastic bags with a zip closure. About 10 to 11 budworm larvae are placed into the bag and the bags zipped closed. Test plants are maintained in a growth room at about 250C and about 20-40% relative humidity for 4 days, avoiding direct exposure to fluorescent light (24 hour photoperiod) to prevent trapping of heat inside the bags. Mortality and reduced feeding are assessed 4 days after treatment, compared to untreated control plants.

SMILES | mortality in comparison with untreated controls
Cc1cc(Cl)cc(C(=O)N=S(CC2CC2)CC2CC2)c1N [S.7] | over 75%
CCS(CC1CC1)=NC(=O)c1cc(Cl)cc(C)c1N (centres unmarked) [S.9] | over 75%
CC(C)S(CC1CC1)=NC(=O)c1cc(Cl)cc(Cl)c1N (centres unmarked) [S.10] | over 75%
Cc1cc(Cl)cc(C(=O)N=S(CC2CC2)C(C)C)c1N (centres unmarked) [S.11] | over 75%
CCS(CC)=NC(=O)c1cc(Cl)cc(Br)c1N [S.14] | over 75%
CC(C)S(=NC(=O)c1cc(Br)cc(Br)c1N)C(C)C [S.20] | over 75%
CCS(CC)=NC(=O)c1cc(Br)cc(Br)c1N [S.23] | over 75%

test system: Orchid Thrips (Dichromothrips corbetti); experiment: Orchid thrips (Dichromothrips corbetti) floral-immersion test; type: in vivo; conditions: 500 ppm; dipped orchid flowers; 72 hours after treatment

SMILES | mortality in comparison with untreated controls
CCS(CC)=NC(=O)c1cc(Cl)cc(C(F)(F)F)c1N [S.12] | over 75%
CCS(CC)=NC(=O)c1cc(Cl)cc(Br)c1N [S.14] | over 75%
CCS(CC)=NC(=O)c1cc(Br)cc(Cl)c1N [S.15] | over 75%
CC(C)S(=NC(=O)c1cc(Br)cc(C(F)(F)F)c1N)C(C)C [S.17] | over 75%
CCCS(CCC)=NC(=O)c1cc(Cl)cc(Cl)c1N [S.22] | over 75%

test system: Cowpea Aphid (Aphis craccivora); experiment: Cowpea aphid (Aphis craccivora) spray on potted cowpea plants; type: in vivo; conditions: 500 ppm, after 72 hours

SMILES | mortality in comparison with untreated controls
CCS(CC)=NC(=O)c1cc(Br)cc(Cl)c1N [S.15] | over 75%
CCS(CC)=NC(=O)c1cc(Br)cc(Br)c1N [S.23] | over 75%

test system: Green Peach Aphid (Myzus persicae); experiment: Green peach aphid (Myzus persicae) foliar spray on bell pepper plants; type: in vivo; conditions: 2500 ppm; sprayed bell pepper plants; after 5 days

SMILES | mortality in comparison with untreated controls
CCS(CC1CC1)=NC(=O)c1cc(Cl)cc(C)c1N (centres unmarked) [S.9] | over 75%
CC(C)S(CC1CC1)=NC(=O)c1cc(Cl)cc(Cl)c1N (centres unmarked) [S.10] | over 75%
Cc1cc(Cl)cc(C(=O)N=S(CC2CC2)C(C)C)c1N (centres unmarked) [S.11] | over 75%
